# Source: patent publication US20100093613A1, “METHODS FOR IDENTIFYING AGENTS AND THEIR USE FOR THE PREVENTION OR STABILIZATION OF FIBROSIS” (priority 2007, published 2010)
# For at least one compound, name, drawing or mass did not settle the structure.
# Legend:
# human primary cells = assay: Total score for desired parameter modulation over the BioMAP systems of Table 1; assay type: cell-based; details: penalties not applied
# Description: Each screened compound is scored according to its modulation of the selected readout parameters. Compounds receive a positive score (score of 1) or negative score (score of 0) for each readout parameter set forth in Table 2 that is modulated in the desired direction. […] Parameters may be penalized by making the positive score a −1 for parameters where regulation is opposite to the desired direction.
# The relative importance of each parameter may be weighted by the screener to select those parameters of greatest interest for a particular application.
# Compounds were first selected to inhibit PAI-1 in the HDFT as an indication of TBF-b signaling inhibition without being cytotoxic. […] Blank spots in Table 3 were where parameter was not assayed. […]
# BioMAP Systems are designed to model complex human disease biology in a practical in vitro format. […] Incorporating appropriate cell types and stimulating signaling pathways relevant to disease states allows association of biological activities detected in BioMAP Systems with disease processes. Drug effects are then recorded by measuring biologically meaningful protein readouts that provide coverage of biological space of interest (e.g., inflammation, tissue remodeling) and allow discrimination between different drug classes tested. […]
# Readout Parameter Measurements. The levels of readout parameters were measured by ELISA.
# [1] = PMID 17023731, PMID 8421998; cited from earlier work
compound,measurement,setting,value
CC1=C(/C=C/C(C)=C/C=C/C(C)=C/C(=O)O)C(C)(C)CCC1 [retinoic acid],Score (Fraction correctly modulated parameters out of 45-58 total),human primary cells,high scores
same,anti-fibrotic activity,[1],known anti-fibrotic activity
